Assay results reported in patent EP4360658A1 (Julius-Maximilians-Universität Würzburg, priority 2022, dated 2024).

Assay: general procedure: Fmoc solid-phase peptide synthesis; 2-Chlorotrityl chloride resin (CTC-Resin); hydroxybenzotriazole / DIC / DIPEA
Settings: HPLC chromatogram, LC-MS
[1] = whole synthesis, scale of the general procedure 100 µmol

| Substance | purity (crude or final not stated) [1] [%] | purity (crude or final not stated) (conjugation step) [%] |
| --- | --- | --- |
| PEPTIDE1{I.A.G.A.G.S.G.S.[Den]}$$$$V2.0 | >95 | – |
| PEPTIDE1{[ac].G.S.G.S.G.P.Q.G.I.A.G.A.G.S.G.S.[Den]}$$$$V2.0 | – | >95 |
| Ac-GSGS-GPQGIAGA-GSGS | >95 | – |
| Ac-GALEIVGA | >95 | – |
| PEPTIDE1{[ac].G.P.Q.A.Y.W.G.A}$$$$V2.0 | >90 | – |
| PEPTIDE1{[ac].G.P.L.A.L.V.G.A}$$$$V2.0 | >90 | – |
| Ac-GPLAIVGA | >95 | – |
| PEPTIDE1{[ac].G.P.Q.G.Y.W.G.A}$$$$V2.0 | >95 | – |
| PEPTIDE1{[ac].G.S.G.S.G.P.Q.A.Y.W.G.A.G.S.G.S.[Den]}$$$$V2.0 | – | >90 |
| PEPTIDE1{[ac].G.A.L.A.L.V.G.A}$$$$V2.0 | >90 | – |
| Ac-GALAIVGA | >95 | – |
| PEPTIDE1{[ac].G.A.L.E.L.V.G.A}$$$$V2.0 | >95 | – |
| PEPTIDE1{[ac].G.P.L.A.Y.W.G.A}$$$$V2.0 | >95 | – |
| Ac-GSGS-GPLALVGA-GSGS-Aha | >60 | – |
| Ac-GPQGIAGA-Den | – | >95 |
| Ac-GPLELVGA | >95 | – |
| Ac-GPLEIVGA | >95 | – |
| Ac-GPQGIAGA | >95 | – |

HELM strings list residues between dots; [ac] is acetyl, [am] amide, other brackets name non-standard units.
